The other results are listed elsewhere or left out. Shown are side measurements of this screen, not its main read-out; they come without a call. The list favours compounds with an active or inconclusive main result. Words in brackets tell the shape of the fitted curve; partial curves, single points and poor fits give uncertain potencies.
Each compound was assayed against Caspase-1 (Homo sapiens) (UniProt P29466) (assay: Concentration-Response Counterscreen for Redox Active Inhibitors of Caspase-1: Cysteine). Conditions: recombinant caspase-1, fluorogenic substrate, cysteine buffer; measured here: 1 hr endpoint read.
Description: NIH Molecular Libraries Screening Centers Network [MLSCN]
NIH Chemical Genomics Center [NCGC]
PI Name: Dr. James Wells,
Dr. Enrique Perez-Paya, Dr.Janice Williams, Dr. Dennis Wolan, a person
The caspases (Cysteine Aspartyl Protease) comprise a related family of 14 dimeric proteases that are critical mediators of apoptosis (programmed cell death) and inflammation. The caspases represent an important class of drug targets for stroke, ischemia, cancer and inflammatory diseases. […] One goal of this project was to identify compounds that act as allosteric inhibitors via stabilizing the procaspase form of the enzyme. Previous work in Well's laboratory has shown that such allosteric inhibitors can be identified and these act by binding at the dimer interface of enzyme (Hardy, Lam et al., 2004).
The biochemical assay was configured using purified caspase 1 at a high enzyme concentration to promote formation of the homodimers and thus facilitate the identification of allosteric inhibitors. The overall goal was to identify reversible inhibitors with better drug-like properties than the currently available set of aspartyl-containing peptidomimetics that covalently bind the active site. Caspase 1 was assayed using the profluorescent substrate Ac-WEHD-AFC. After initiation of the assay with substrate the plates were rapidly read using an automated robotic system (Kalypsys, Inc.) to maintain consistent timing. A kinetic mode of detection was used where the initial rate was collected (estimated final product formation was ~10%). Product formation was also measured after 1 hour. Compounds were screened as a concentration-titration series that ranged from 57 uM to 0.7 nM.
Compounds that generate reactive oxygen species can lead to high hit rates in HTS biochemical assays. This mechanism was cited by Smith et al. (2002) as the main artifact responsible for >85% of the hits in an HTS against caspase 8. We identified a series of putative inhibitors in an enzymatic screen of caspase 1 and we performed two assays to test if these compounds operated by such a redox-active mechanism. Based on the published work, compounds that appear active due to a redox-active mechanism will show shifts in inhibition potency when the redox potential of the buffer is changed. Compounds that show a change in IC50 upon switching the buffer system from DTT to cysteine or DTT and the enzyme catalase are suspected to be redox active compounds.
NCGC Assay Protocol Summary:
Caspase 1 was prepared in buffer (50 mM HEPES pH 7.5, 50 mM KCl, 200 mM NaCl, 10 mM Cys (Aldrich cat# 861677), 0.1% CHAPS) at a concentration of 66.6 nM and 3 uL was dispensed to all wells using black solid Kalypsys 1536-well plates. 20 nL of DMSO containing compounds was added using a pin-tool (Kalypsys Inc.) to columns 5-48. Then 20 nL of DMSO solution from a control plate was added to columns 1-4. Controls were: Column 1, 16 point titration with each concentration in duplicate (1:1 dilutions in DMSO; final starting concentration was 57 uM) of the caspase 1 inhibitor Ac-WEHD-CHO (Alexis Biochemicals); Column 2, a 16 point titration with each concentration in duplicate of the free AFC fluorophore prepared in DMSO (Alexis Biochemicals), final starting was 40 uM; Column 3 neutral (DMSO only) control; Column 4: DMSO alone, to serve as a negative control (no substrate was added). Then 1 uL of 20 uM the substrate Ac-WEHD-AFC (Alexis Biochemicals) prepared in the same buffer was dispensed to all wells except columns 2 and 4 and the plates were immediately transferred (< 1 min) to the Viewlux. The plates were then exposed using 405 nm excitation/520 nm emission filters for 4 sec and read at 20 sec intervals for 3 min. Final enzyme concentration was 50 nM and the final substrate concentration was 5 uM.
Concentration-response curves were fitted to the data calculated from slope of the linear regression of fluorescent intensity versus time (the rate). […]

By UniProt entry, the sequences of proteins in these tests, tags left out. Where a name states a change or a piece, a line headed by the entry shows the natural chain unless it says otherwise.
UniProt P29466: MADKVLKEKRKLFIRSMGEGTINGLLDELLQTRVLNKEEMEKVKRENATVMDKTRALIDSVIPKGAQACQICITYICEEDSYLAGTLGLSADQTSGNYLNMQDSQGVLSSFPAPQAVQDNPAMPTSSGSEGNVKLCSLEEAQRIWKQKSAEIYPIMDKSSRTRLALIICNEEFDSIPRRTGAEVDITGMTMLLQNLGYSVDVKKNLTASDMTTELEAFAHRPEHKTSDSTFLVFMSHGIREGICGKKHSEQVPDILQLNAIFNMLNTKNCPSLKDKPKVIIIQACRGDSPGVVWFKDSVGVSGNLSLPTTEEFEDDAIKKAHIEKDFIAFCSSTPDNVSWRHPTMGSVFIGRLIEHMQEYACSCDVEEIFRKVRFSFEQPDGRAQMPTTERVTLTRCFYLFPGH

| Structure (SMILES) | AC50 |
| --- | --- |
| [C-]1=CC=CC1.[C-]1=CC=CC1.[Cl-].[Cl-].[Ti+4] | 20 µM [falling, partial curve, poor fit] |
| O=C(O)c1cc[c]([Hg][Cl])cc1 | 2 µM [falling, full curve] |
| Cn1ncnc2c(=O)n(C)c(=O)nc1-2 | 3.98 µM [falling, partial curve, poor fit] |
| Cc1cc(C)cc(C(=O)N(C)[C@H](Cc2ccc(-c3ccccc3)cc2)C(=O)N[C@@H](Cc2c[nH]c3ccccc23)C(=O)O)c1 | 15.8 µM [falling, full curve] |
| CC(=O)Nc1cc(OC(C)=O)c2nonc2c1OC(C)=O | 15.8 µM [falling, partial curve] |
| C[C@]12Cc3cn4c(nc3C=C1CC[C@H]1[C@@H]2CC[C@@]2(C)[C@H]1CC[C@@]2(O)C#N)nc1ccccc14 | 31.6 µM [rising, partial curve] |

2 neighbouring records out of the list so far, for reference:

| Structure (SMILES) | AC50 |
| --- | --- |
| O=C(O)c1cc[c]([Hg][Cl])cc1 | 2 µM [falling, full curve] |
| Cn1ncnc2c(=O)n(C)c(=O)nc1-2 | 3.98 µM [falling, partial curve, poor fit] |
